For 2 molecules, binding results are on record in publication PMC10077476.

By UniProt entry, the sequences of proteins in these tests, tags left out.
UniProt Q91YE6: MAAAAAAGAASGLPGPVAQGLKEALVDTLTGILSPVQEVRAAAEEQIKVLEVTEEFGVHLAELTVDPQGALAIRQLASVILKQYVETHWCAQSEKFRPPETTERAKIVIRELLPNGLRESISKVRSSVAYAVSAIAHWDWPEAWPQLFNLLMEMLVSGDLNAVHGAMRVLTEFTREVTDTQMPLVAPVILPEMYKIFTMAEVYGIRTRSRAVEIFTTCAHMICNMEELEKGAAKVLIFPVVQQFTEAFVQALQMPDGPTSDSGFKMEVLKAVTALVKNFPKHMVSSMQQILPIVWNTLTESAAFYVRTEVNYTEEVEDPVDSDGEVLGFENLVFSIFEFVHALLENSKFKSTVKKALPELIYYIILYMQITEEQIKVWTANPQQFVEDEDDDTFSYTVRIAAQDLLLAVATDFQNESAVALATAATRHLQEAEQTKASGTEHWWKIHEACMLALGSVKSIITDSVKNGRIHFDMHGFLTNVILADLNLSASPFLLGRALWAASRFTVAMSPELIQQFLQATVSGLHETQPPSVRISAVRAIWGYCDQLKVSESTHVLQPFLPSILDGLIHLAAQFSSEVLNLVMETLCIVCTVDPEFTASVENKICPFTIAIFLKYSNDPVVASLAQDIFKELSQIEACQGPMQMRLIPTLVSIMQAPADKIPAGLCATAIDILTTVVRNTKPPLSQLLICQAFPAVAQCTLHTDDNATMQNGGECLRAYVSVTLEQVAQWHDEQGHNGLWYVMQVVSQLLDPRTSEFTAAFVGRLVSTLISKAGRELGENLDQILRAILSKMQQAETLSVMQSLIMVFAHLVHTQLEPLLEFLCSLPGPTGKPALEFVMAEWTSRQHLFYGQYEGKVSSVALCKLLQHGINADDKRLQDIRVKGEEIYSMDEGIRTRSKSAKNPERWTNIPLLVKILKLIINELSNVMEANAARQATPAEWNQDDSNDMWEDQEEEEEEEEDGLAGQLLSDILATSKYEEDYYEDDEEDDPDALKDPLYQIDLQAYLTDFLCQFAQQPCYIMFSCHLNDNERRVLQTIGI

Results are given in words; binding and its absence hold for the method and conditions named. Binding seen in cells or lysates may run through a third protein. These calls come from enrichment with a bait or labelling near it, and not all partners need be listed.

In the experiment the target is T1, myocardin-related transcription factor-A (endogenous, mouse aortic SMCs) (mouse (endogenous in mouse AoSMCs)) (UniProt Q8K4J6).
T1 sequence: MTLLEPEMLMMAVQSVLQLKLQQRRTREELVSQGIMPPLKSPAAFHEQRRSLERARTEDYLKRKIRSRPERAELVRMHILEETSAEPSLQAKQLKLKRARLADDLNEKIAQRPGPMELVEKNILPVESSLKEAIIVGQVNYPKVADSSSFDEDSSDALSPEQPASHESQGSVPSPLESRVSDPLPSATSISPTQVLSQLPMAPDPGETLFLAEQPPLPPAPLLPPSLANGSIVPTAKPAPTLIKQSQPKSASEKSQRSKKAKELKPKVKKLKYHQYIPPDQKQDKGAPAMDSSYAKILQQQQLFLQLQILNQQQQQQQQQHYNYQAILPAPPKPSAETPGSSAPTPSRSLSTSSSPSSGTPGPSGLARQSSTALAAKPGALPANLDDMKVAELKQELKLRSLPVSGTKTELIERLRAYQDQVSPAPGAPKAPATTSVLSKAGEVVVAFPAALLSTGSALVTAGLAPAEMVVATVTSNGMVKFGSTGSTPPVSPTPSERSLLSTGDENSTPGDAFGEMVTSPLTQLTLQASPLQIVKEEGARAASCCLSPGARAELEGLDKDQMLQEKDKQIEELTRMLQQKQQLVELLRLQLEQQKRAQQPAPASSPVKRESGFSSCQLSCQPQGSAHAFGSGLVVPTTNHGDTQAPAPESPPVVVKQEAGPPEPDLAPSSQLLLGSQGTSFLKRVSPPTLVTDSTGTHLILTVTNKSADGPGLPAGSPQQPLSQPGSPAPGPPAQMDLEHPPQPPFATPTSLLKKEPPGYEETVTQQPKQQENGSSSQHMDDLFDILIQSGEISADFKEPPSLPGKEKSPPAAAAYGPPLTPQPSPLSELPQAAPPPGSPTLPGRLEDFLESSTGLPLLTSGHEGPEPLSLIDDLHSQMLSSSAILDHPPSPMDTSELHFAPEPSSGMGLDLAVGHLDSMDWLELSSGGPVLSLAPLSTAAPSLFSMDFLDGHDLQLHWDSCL
As to the kind of experiment: affinity purification with mass spectrometry; endogenous MRTF-A immunoprecipitated with an anti-MRTF-A Ab from mouse AoSMC lysates; washed immunoprecipitates analysed by LC-MS/MS.

Consider “importin 9 (endogenous, mouse aortic SMCs) (from UniProt Q91YE6 1-1041)”, for which the binding result was “binds”.

B1: Prdm6 (endogenous, mouse aortic SMCs) (protein, UniProt Q3UZD5 1-596)
chain: MLKPGDPGGSAFLKVDPAYLQHWQQLFPHGGGGGGPLKASGAALALGAPQPLQPPPPPPPPPPERAEPPPDGLRPRPASLSSTPAPSSTSASSASSCAAAAAAAALAGLSALPVAQMPVFAPLAAAAVAAEPLPPKDLCLGASAGPGPAKCGGGGGSVGDGRGVPRFRCSAEELDYYLYGQQRMEIIPLNQHTSDPNNRCDMCADNRNGECPMHGPLHSLRRLVGTSSAAAAAPPPELPEWLRDLPREVCLCTSTVPGLAYGICAAQRIQQGTWIGPFQGVLLSPEKVQTGVVRNTQHLWEIYDQDGTLQHFIDGGEPSKSSWMRYIRCARHCGEQNLTVVQYRSNIFYRACIDIPRGTELLVWYNDSYTSFFGIPLQCIAQDENLNVPSTVMEAMCRQDALQPFNKSSKLSPSGQQRSVVFPQTPCSRNFSLLDKSGPMEAGFNQINVKNQRVLASPTSTSQLHSEFSDWHLWKCGQCFKTFTQRILLQMHVCTQNPDRPYQCGHCSQSFSQPSELRNHVVTHSSDRPFKCGYCGRAFAGATTLNNHIRTHTGEKPFKCERCERSFTQATQLSRHQRMPNECKPITESPESIEVD
As to B1, the binding result is recorded as “binds”.
